In publication PMC7730238, “Temporin-Like Peptides Show Antimicrobial and Anti-Biofilm Activities against Streptococcus mutans with Reduced Hemolysis” (Molecules, 2020):
No end group written: not given here.

System: Human red blood cells (hRBCs)
Type: cell-based
Conditions: ratio of HL50 to the MIC of the peptides against S. mutans
Protocol: The hemolytic toxicity of the peptides was determined as described. Human red blood cells (hRBCs) were washed with phosphate-buffered saline (PBS, pH 7.2) and centrifuged at 1000× g for 10 min at 4 °C until the supernatant was clear. 4% hRBCs and an equal volume of the peptides with different concentrations were incubated at 37 °C for 1 h. After incubation, the supernatant was collected by centrifugation, and 150 μL was transferred to a new 96-well plate (Corning, New York, NY, USA). The absorbance at 450 nm was measured. The 0.1% Triton X-100 was used as the positive control, and PBS was used as the negative control. The minimum hemolysis concentration (MHC) was defined as the lowest concentration of peptide that causes 10% hemolysis, and HL50 was the lowest concentration that causes 50% hemolysis. CSI was defined as the ratio of HL50 to MIC [31].

Row | Sequence | CSI (cell selectivity index)
1 | FLQRIIRALGRLF [GHaR7R] | 1.8
2 | FLQRIIGRLGRLF [GHaR8R] | 27
3 | FLQRIRGALGRLF [GHaR6R] | > 16
